Test results reported in US5719064A, “Peptide diagnostics and therapeutics for spondyloarthropathies” (Oklahoma Medical Research Foundation, priority 1992, dated 1998).
Part of at least one peptide drawing is inferred or uncertain, most often the ends. No end group written: not given here.

Target: HLA B*2705 (Homo sapiens, UniProt P01889, D138H/D201E/E176V/E204Q/G107R/H137Y/K202T/N104T/N87E/Q56L/Q94K/R106L/R155S/R180L/S101D/S121N/S48T/Y140D/Y33H/Y91C)
Assay: HLA/β-2 microglobulin/peptide complex formation, binding determined by HPLC
Conditions: for Binding of the peptide to B*2705: purified extracellular portion of B*2705 with peptide and β-2 microglobulin, complex detected by HPLC

## LRRYLENGK [LRRYLENGK]
HPLC, uncomplexed controls give peaks of approximately 11,000 and 30,000
  Size of the complex observed (peptide, B*2705 and β2 microglobulin): 42,000 Daltons
  Binding of the peptide to B*2705: Binds to B*2705
Listed as peptide corresponding to amino acid residues 168-176 of B*2705
  Binding of the peptide to B*2705: does in fact bind B*2705
